Results reported in the supplement of paper PMC4604168 (melanoma cell lines).
The list shows a part of the results. Single values are uncertain, as repeats are few or missing.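 Cells were imaged in 1,536-well plates, and nuclei stained with an antibody against cleaved PARP were counted against all DNA-stained nuclei to give the apoptosis fraction. Screening doses were chosen to leave most cells alive, and resting and induced cleaved-PARP levels differ strongly between cell lines.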

These compounds were tested on SkMel30 (assay: cleaved PARP positive nuclei fraction relative to DMSO control; melanoma cells; higher = more apoptosis). Conditions: library dose: low library concentration; 72 h.

Compared with `CC1(C)CCC(c2ccc(Cl)cc2)=C(CN2CCN(c3ccc(C(=O)NS(=O)(=O)c4ccc(N[C@H](CCN5CCOCC5)CSc5ccccc5)c(S(=O)(=O)C(F)(F)F)c4)cc3)CC2)C1` + Cc1cc([N+](=O)[O-])ccc1NS(=O)(=O)c1cc(Cl)ccc1Cl [FH535] (first compound 0.4 µM, partner dose 1 µM), `NC1(c2ccc(-c3nc4ccn5c(=O)[nH]nc5c4cc3-c3ccccc3)cc2)CCC1` + CC(C)(C)c1cnc(CSc2cnc(NC(=O)C3CCNCC3)s2)o1 [SNS-032] (first compound 0.4 µM, partner dose 0.01 µM) is lower in “cleaved PARP positive nuclei fraction” value: 169% for the first, 70.9% for the second.

First: CN(c1ncccc1CNc1nc(Nc2ccc3c(c2)CC(=O)N3)ncc1C(F)(F)F)S(C)(=O)=O + O=C(O)C(=O)Nc1sc2c(c1C(=O)O)CCNC2 [TCS401] (first compound 0.08 µM, partner dose 1.66667 µM)
Second: CS(=O)(=O)c1ccc(C(=O)Nc2ccc(Cl)c(-c3ccccn3)c2)c(Cl)c1 [vismodegib] + COC(=O)c1sccc1S(=O)(=O)Nc1ccc(Nc2ccccc2)cc1OC [GSK0660] (first compound 1 µM, partner dose 1 µM)
The “cleaved PARP positive nuclei fraction” value of the first is lower: 42.9% for the first, 76.9% for the second.

Compared with `NC1(c2ccc(-c3nc4ccn5c(=O)[nH]nc5c4cc3-c3ccccc3)cc2)CCC1` + COc1cc2c(Oc3ccc4[nH]c(C)cc4c3F)ncnc2cc1OCCCN1CCCC1 [cediranib] (first compound 0.4 µM, partner dose 0.4 µM), `NC(=O)c1ccc(N(C(N)=O)c2c(F)cccc2F)nc1-c1ccc(F)cc1F` + O=C(CCCCCCC(=O)Nc1ccccc1)NO [vorinostat] (first compound 0.4 µM, partner dose 0.08 µM) is lower in “cleaved PARP positive nuclei fraction” value: 76% for the first, 73.4% for the second.

Going from `CC1(C)CCC(c2ccc(Cl)cc2)=C(CN2CCN(c3ccc(C(=O)NS(=O)(=O)c4ccc(N[C@H](CCN5CCOCC5)CSc5ccccc5)c(S(=O)(=O)C(F)(F)F)c4)cc3)CC2)C1` + C=CCn1c(=O)c2cnc(Nc3ccc(N4CCN(C)CC4)cc3)nc2n1-c1cccc(C(C)(C)O)n1 [MK1775] (first compound 0.4 µM, partner dose 0.02 µM) to `NC1(c2ccc(-c3nc4ccn5c(=O)[nH]nc5c4cc3-c3ccccc3)cc2)CCC1` + COc1ccc(-c2ccc3c(N4CCOCC4)nc(N4C[C@@H](C)O[C@@H](C)C4)nc3n2)cc1CO [KU0063794] (first compound 0.4 µM, partner dose 0.02 µM), the “cleaved PARP positive nuclei fraction” value falls from 237% to 32.5%.

Going from `Cn1sc(=O)n(Cc2ccccc2)c1=O` + O=c1cc(-c2cccc3c2Sc2ccccc2S3)oc(N2CCOCC2)c1 [KU55933] (first compound 0.4 µM, partner dose 1 µM) to `CS(=O)(=O)c1ccc(C(=O)Nc2ccc(Cl)c(-c3ccccn3)c2)c(Cl)c1` [vismodegib] + CC(C)(C)c1cnc(CSc2cnc(NC(=O)C3CCNCC3)s2)o1 [SNS-032] (first compound 1 µM, partner dose 0.01 µM), the “cleaved PARP positive nuclei fraction” value rises from 35% to 67.3%.

Going from `CCCCCCCCc1ccc(CCC(N)(CO)CO)cc1` [fingolimod] + COc1cc2ncnc(Nc3ccc(Oc4ccccc4)cc3)c2cc1OC [SrcI1] (first compound 2 µM, partner dose 2 µM) to `Cn1cnc2c(F)c(Nc3ccc(Br)cc3Cl)c(C(=O)NOCCO)cc21` [selumetinib] + O=C(Nc1cccc(Cl)c1)Nc1ncc(CCNc2ncnc3ccsc23)s1 [SNS314] (first compound 0.015 µM, partner dose 0.0008 µM), the “cleaved PARP positive nuclei fraction” value rises from 62.3% to 101%.

Compared with `NC1(c2ccc(-c3nc4ccn5c(=O)[nH]nc5c4cc3-c3ccccc3)cc2)CCC1` + Cc1ccc(NC(=O)c2cccc(N(C)C)c2)cc1NC(=O)c1ccc(O)cc1 [ZM336372] (first compound 0.4 µM, partner dose 2 µM), `COc1ccc(C2=N[C@@H](c3ccc(Cl)cc3)[C@@H](c3ccc(Cl)cc3)N2C(=O)N2CCNC(=O)C2)c(OC(C)C)c1` [Nutlin-3] + C[C@@H]1CCN(C(=O)CC#N)C[C@@H]1N(C)c1ncnc2[nH]ccc12 [CP690550] (first compound 0.1 µM, partner dose 1 µM) is lower in “cleaved PARP positive nuclei fraction” value: 84.2% for the first, 64.8% for the second.

In the case of `NC1(c2ccc(-c3nc4ccn5c(=O)[nH]nc5c4cc3-c3ccccc3)cc2)CCC1` + Cn1cc(/C=C2\C(=O)Nc3cccnc32)c2ccccc21 [GW441756] (first compound 0.4 µM, partner dose 0.4 µM), the “cleaved PARP positive nuclei fraction” value is reported as 29.3%.
